# Measured values reported in PubChem BioAssay AID504444 (National Center for Advancing Translational Sciences (NCATS), 2011).
# “And” between values parts separate entries of the source, which are not always exact repeats. Identical values can stand only once. Among all 360,000 compounds or so, about 7,500 (2.1%) were called active. Inconclusive results, whose numbers are uncertain, are shown with a selection of clear calls. Calls come from the whole dose curve; as a rule, active = well fitted inhibition curve with a large enough effect; inconclusive = small, poorly fitted or top-dose-only effect, or effect the other way; inactive = flat fitted curve, though single readings scatter. Where the call is inconclusive, the potency comes from a doubtful curve fit.
# Assay: Nrf2 qHTS screen for inhibitors; note: nearly all actives have a fitted effect of over 60% in size
# Conditions: A549 ARE-Fluc reporter, luciferase luminescence, 18-24 h; activity change, negative = inhibition: at 46 µM (top of the series)
# Procedure, shortened: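 Nrf2 activity is the BugLite luminescence, read 15 min after reagent at room temperature, following CellTiter-Fluor cytotoxicity readout (30 min, 37C). Compound titrations were applied for 18-24 h to 5000 A549 ARE_Fluc cells/well in 5% FBS OPTI-MEM.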
# % is set by controls: 0 for no effect and ±100 for the full control effect; potency is the fitted concentration of half-maximal effect.
Structure (SMILES),Potency,"activity change, negative = inhibition"
CCOc1ccccc1C(=O)Nc1cc2c(cc1N1CCCCC1)n(C)c(=O)n2C,active: 23.1 µM,–
Cc1ccc(S(=O)(=O)N(C)c2ccc(OC(=O)CN3C(=O)NC(C)(c4ccccc4)C3=O)cc2)cc1C (centres undefined),"inconclusive: 29.1 µM [activator, single point]",–
S=C(NCCCc1cnc[nH]1)NCCCN(CCc1ccccc1)c1ccc(Br)cn1,inactive,–
CCOC(=O)c1nn(-c2ccc(OCC)cc2)c2nc(-c3ccco3)c(C#N)c(=O)n12,"inconclusive: 14.6 µM [falling, single point]",–
CCOc1ccccc1/C=N/Nc1cc(C)nc2ccc(C)cc12,"inconclusive: 25.9 µM [activator, single point]",–
Cc1ccnc(NC(=O)c2cc3ccccc3o2)c1,"inconclusive: 0.146 µM [activator, full curve]",–
CC(=O)c1cc(F)ccc1OCC(=O)Nc1ccc2c(c1)OCO2,–,inactive: 23.2%
Cc1cc(C)cc(NS(=O)(=O)c2ccc3[nH]cc(C(=O)NCc4ccco4)c(=O)c3c2)c1,active: 18.4 µM and active: 16.4 µM,–
CN(c1ccccc1)S(=O)(=O)c1cc(C(=O)N2CCN(c3ccccn3)CC2)ccc1Cl,"inconclusive: 20.6 µM [falling, partial curve, poor fit]",–
O=C(COc1ccc(Br)cc1Br)NC(=O)NC1CCCC1,"inconclusive: 2.91 µM [activator, partial curve, poor fit]",–
COc1cccc(NC(=O)CCc2nnc3n(CC(C)C)c(=O)c4ccccc4n23)c1,–,inactive: -2.47%
CCc1ccc(S(=O)(=O)c2n[nH]n3c2nc(=O)c2ccccc23)cc1,–,inactive: 0.163%
Cc1c2cccn2cc[n+]1C,–,inactive: -17.7%
Cc1ccc(-c2nnc3ccccc3c2C(=O)Nc2cccc(C(F)(F)F)c2)cc1,"inconclusive: 1.46 µM [activator, partial curve, poor fit]",–
CC(=O)N1CCc2cc(Br)cc(S(=O)(=O)N3CCc4ccccc43)c21,"inconclusive: 13 µM [falling, partial curve]",–
CC(=O)O[C@]1(C(C)=O)CC[C@H]2[C@@H]3C=C(C)C4=CC(=O)CC[C@@H]4[C@H]3CC[C@@]21C,"inconclusive: 23.1 µM [falling, single point]",–
CC(C(=O)NCc1ccc(Cl)cc1)n1ccc2cc(S(=O)(=O)N3CCCC3)ccc21 (centres undefined),"inconclusive: 29.1 µM [falling, partial curve, poor fit]",–
CCOc1ccccc1N(CC)C(=O)c1cc2c(=O)n(CC)c3ccccc3c2s1,–,inactive: -25.6%
CNc1c([N+](=O)[O-])cnn1-c1ccccn1,"inconclusive: 4.61 µM [activator, partial curve, poor fit]",–
